In assay [1] the test system is G. lamblia trophozoites (luciferase expressing, WBC6). Type of assay: cell-based, Giardia lamblia. To be noted: initial Pathogen Box screen, single concentration 16 µM, inhibition compared to DMSO wells. As to the method:
Trophozoites were harvested by chilling cultures on ice for 30 minutes and plated by adding 150 μL per well at a concentration of 250,000 cells/mL. Metronidazole (Sigma, St. Louis, MO) was used as a control and was serially diluted 1:2 from 40 μM to 0.04 μM and 150 μL was added to the 150 μL of the G. lamblia trophozoites. Plates were covered in plastic low-evaporation lids, sealed in individual anaerobic BD GasPak Bio-Bags (Becton Dickinson, San Jose, CA) and incubated at 37 °C for 24 hours. […] A duplicate plate was concurrently set up and assayed using a MOXI Z Mini Automated Cell Counter Kit (Orflo, Ketchum, ID). Results obtained from the bioluminescence assay and the MOXI counter data were compared to evaluate their correlation to each another. Albendazole (Sigma, St. Louis, MO), an alternative giardiasis therapeutic, was assayed in concentrations from 4 μM to 0.004 μM with only the luciferase expressing G. lamblia cells. […]

Assay [2] deals with C. parvum (UGA1 Nluc expressing strain in HCT-8 cells). It is filed as cell-based, Cryptosporidium parvum. To be noted: initial Pathogen Box screen, single concentration 10 µM, inhibition compared to DMSO wells. As to the method:
Growth inhibition and EC50 determination assays were performed using UGA1 Nluc expressing C. parvum strain in HCT-8 cells (ATCC^©, Manassas, VA) as previously described. HCT-8 cells were inoculated onto 96-well plates and allowed to grow for 48 hours to 90–100% confluence and then treated with single concentration (10 μM) or serially diluted compounds prior to oocyst infection. C. parvum oocysts were incubated for 10 minutes in 10% bleach at room temperature and then washed with DPBS. […] The cell monolayers were lysed for 1 hour before adding Nano-Glo® luciferase reagent (Promega, Madison, WI), and measuring relative luminescence units (RLU) in an EnVision Plate Reader (Perkin Elmer, Waltham, MA). Several parameters, including reproducibility and reliability, were previously evaluated to optimize this assay for low and high-throughput (HTP) screening of small molecule compounds against C. parvum. EC50 values were calculated using Prism 7 software (GraphPad Software, San Diego, CA).
C. parvum screening against the Pathogen Box compounds was performed as previously described starting at a concentration of 10 μM [23].

Data on 1 compound can be found in article PMC6095626, “Screening of the Pathogen Box for inhibitors with dual efficacy against Giardia lamblia and Cryptosporidium parvum” (PLoS Neglected Tropical Diseases, 2018).

For the compound `CN1CCCC1CCO[C@](C)(c1ccccc1)c1ccc(Cl)cc1` (some centres unmarked) [MMV637229], the “Giardia (16 uM) Mean % inhibition” value in assay [1] was 0.0356%. For the same compound, in assay [2], the “Crypto (10 uM) Mean % inhibition” value is listed as 85%.
